Each number is a percent effect as filed.
The record does not define 0% and 100%; most values in the screen are far below 50% and negative numbers occur (in some assays of this library far below -100).
This is an unselected part of the compounds tested.
Two or more numbers in one place are separate tests of the same structure; such repeats can differ widely.

A: 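Phenotypic screen: M. tuberculosis growth, cholesterol and DPPC medium, 4 days; the read-out is not stated. Concentration: 50 µM. Direction is inferred from retests: higher values go with more growth inhibition. Of about 69,000 compounds tested this way, about 370 (0.54%) reached 50% or more in at least one test.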
B: 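Growth of Mycobacterium tuberculosis over 3 days (7H9 medium with glucose and tyloxapol); the read-out is not stated. Concentration: 50 µM. The record gives no direction; compounds that gave an IC50 in retests scored well above the rest, so higher reads as more growth inhibition. Size under these conditions: about 69,000 compounds, about 760 of them at 50% or above in at least one test.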

structure,A,B
CCC(CNC(=O)c1ccco1)N1CCc2ccccc2C1 (stereo not shown),-3.954,16.92 and 1.091
COc1ccccc1OCc1cc(C(=O)N2C[C@@H](C)O[C@@H](C)C2)n[nH]1,-9.475,12.77
CCc1nc(CN2CCCN(c3ncnc4sccc34)CC2)no1,-8.235,13.96 and -8.254
O=c1ccc(-c2cccs2)nn1CN1CCOC(c2ccccc2)C1 (stereo not shown),-0.6048,-6.046
CC(=O)NCC(=O)N1CCN(CCN(C)C)c2ncccc2C1.O=C(O)C(F)(F)F.O=C(O)C(F)(F)F,7.454 and -5.358,-5.07
Cc1cccc(C(=O)NCc2ccnc(N(C)C)c2)n1,-1.477,-3.217
Cn1cccc1C(O)CNC(=O)c1ccc(F)c(F)c1 (stereo not shown),9.799,16.56
CSC(C)C(=O)NCCCc1cc(N)n(-c2ccccc2)n1 (stereo not shown),-12.63,-2.309 and -10.45
O=C(Cc1cccc(F)c1)NCCNCc1ccc2c(c1)CCO2,4.838,17.72
Oc1ccc(-c2c(-c3ccccc3)ncn2C[C@H]2CCCN2)cc1,-8.216,15.96
CN(Cc1ccccn1)C1CC2(CCN(Cc3ccccn3)CC2)C1.O=C(O)C(F)(F)F.O=C(O)C(F)(F)F,-7.224 and 3.706,-44.96
Fc1cnc(N2CCCC3(CCN(c4ncccn4)C3)C2)nc1 (stereo not shown),-10.96,-27.58
Fc1ccc2[nH]c(C3CCCN3CCc3ccccn3)nc2c1 (stereo not shown),9.271,16.38
Cn1cccc1C(=O)NCc1cnc2n1CCN(C(N)=O)CC2,-22.44,-34.38 and 0.2671
CCn1cc(CNC2CCN(c3c(F)cccc3F)C2)cn1 (stereo not shown),9.585,12.31
O[C@@H]1C[C@@H](c2nc(-c3cccnc3)no2)N(C2CCOCC2)C1,-23.35,-8.029 and -32.85
COC[C@H]1CCC[C@]12CN(Cc1cccc(C)n1)CCO2,-3.36,12.85
O=C(O)C(F)(F)F.O=C(O)C(F)(F)F.[H][C@@]12CCN(Cc3ccccn3)[C@]1([H])CC[C@@H](C(=O)N(C)C)O2,2.255,-13.53 and -6.858
Cc1nc(Nc2cnccn2)cc(C2CCN(c3ncccn3)C2)n1 (stereo not shown),-9.415,6.514
O=C(Cc1cccc(F)c1)NCCNCc1ccco1,-17.21,-5.215
O=C(c1sccc1Br)N1CCOCC1,-19.43,-16.18 and -0.5932
Cc1sc2nc(SC(C)c3nc(C(C)(C)C)no3)nc(N)c2c1C (stereo not shown),-29.89,9.362
O=C1NCCCCC1Sc1nnc(-c2cccnc2)n1C1CC1 (stereo not shown),-34.06,-0.4443 and -17.75
CC(C)Sc1ncccc1C(=O)NCc1ccoc1,-15.6,-4.86
COCCc1noc(CN2CCN(c3ccc(OC)cc3)C(=O)C2C)n1 (stereo not shown),-11.7,-20.64
CCn1cc(S(=O)(=O)NC2CCCN(CC3CCCCC3)C2)cn1 (stereo not shown),-11.95 and 4.765,-5.478 and -1.886
CS(=O)(=O)CCn1ccc(NC(=O)Cc2c[nH]c3ccccc23)n1,15.21,-1.029 and 9.811
CCSc1ncc(CN2CCN(c3nc(C)cnc3C)CC2)cn1,51.65,28.11
CN(C)CCNC(=O)c1noc2c1CN(C(=O)N(C)C)CC2,27.93,29.77 and -0.1194
COc1ccc2c(C)c(C(=O)NC3CCN(S(C)(=O)=O)CC3)oc2c1,-6.792 and -7.218,-23.99
CC(C)Cc1cn(C2CCN(C(C)CC3CC3)CC2)nn1 (stereo not shown),13.27,-2.206 and -8.416
c1cc(CN2CCCCC2c2ccc(Nc3cnccn3)nc2)ccn1 (stereo not shown),33.43 and 28.43,20.12
COc1cccn(CC(=O)N(C)CCCOc2c(C)cccc2C)c1=O,-25.97,9.162
CC(Cc1ccccn1)N(C)C(=O)c1ncc[nH]1 (stereo not shown),5.615 and -4.598,11.21
Cc1noc(CN(CCc2cccs2)Cc2cccc(C#N)c2)n1,44.64,43.59
CC(C)C(=O)N1CCC2(CC1)COCCN2Cc1ccc(F)cc1.O=C(O)C(F)(F)F,-7.674,5.121
O=C(NCc1ccon1)c1c(F)cc(Br)cc1F,1.095,-0.8615 and -6.079
CCOc1ccc2[nH]c(=O)c(CN3CCCC(CO)(CO)C3)cc2c1,12.64,14.96
CC(C)c1nccn1C1CCCN(C(=O)c2ccc3[nH]nnc3c2)C1 (stereo not shown),74.53,-25.47
CC(C)c1nn(C)c(N2CCOCC2)c1CNCc1nncn1C,9.977,8.969
Cc1nc(CN2CCCN(C(=O)CC(C)n3cccc3)CC2)cs1 (stereo not shown),-5.718,-6.805
CCc1csc(C2CCCN(C(=O)C3=NN(CC)C(=O)CC3)C2)n1 (stereo not shown),9.774,18.01
O=C(Nc1ccccc1F)c1nn(C2CCS(=O)(=O)C2)c2c1CCCC2 (stereo not shown),0.658,25.57
Cc1cc2n(n1)CCN(c1nc(N)nc3c1CCNCC3)C2,11.57,-1.879 and 2.428
CCc1nnc2ccc(N3CCN(S(=O)(=O)c4ccc(C)s4)CC3)nn12,0.9038,15.96
CC(C)OCCS(=O)(=O)N1CCCC1c1cccc(N(C)C)c1 (stereo not shown),16.25,5.623
CN(C)c1nccnc1C1CCN(C2CCCCC2O)CC1 (stereo not shown),17.05,11.5
Cc1nc2c(c(NC(C)C)n1)CCN(C(=O)CCO)CC2,-5.499,-24.28
N#Cc1ccc(C2CC(=O)Nc3c(C(=O)O)nsc32)cc1 (stereo not shown),20.42,2.178
O=C(NCCn1ccnc1)N1CCN(Cc2cccs2)CC1,-11.35,-10.9
COc1nc2c(cc1C(=O)NCCc1nc(C)c(C(=O)O)s1)CCC2,-17.43,-40.66
O=C(O)C(F)(F)F.O=C(O)C(F)(F)F.[H][C@@]12CN(CC3CC3)C[C@]1([H])OCCN2CC(=O)NC,0.3093,-16.77 and -9.188
CC(C)N1CCn2c(COCC3CCOCC3)cnc2C1C.O=C(O)C(F)(F)F (stereo not shown),3.846,-1.834 and -28.15
COC(=O)CCNC(=O)c1ccoc1CN1c2ccccc2CC1C (stereo not shown),19.27,28.58
CCc1nc(CN(C)c2nccc(N3CCCC(O)C3)n2)no1 (stereo not shown),-15.62,-35.53 and -5.596
O=C(NCCc1ccccc1)C1CCCN(c2ccc3nncn3n2)C1 (stereo not shown),-9.73,-19.29
O=C(NCc1cnc2n1CCN(Cc1nccs1)CC2)C1CCC1.O=C(O)C(F)(F)F,10.1,0.6693
CN(Cc1ccncc1)CC1CCCN(CCc2ccc(Cl)cc2)C1 (stereo not shown),4.287,2.681
COC(=O)C(O)C1CCN(CCc2ccc(C)cc2)CC1 (stereo not shown),-10.72,19.78 and 9.105
Cn1nc(CN2CCCCC(N)C2)c2c(Cl)cccc21 (stereo not shown),-10.48,29.26
CO[C@H]1CO[C@@]2(CCCN(C(=O)N(C)C)C2)C1,4.162,19.21
Cc1nccn1CCC1CCCCN1Cc1ccc2c(c1)OCCO2 (stereo not shown),-21.02 and 2.151,6.504
COc1ccccc1C(=O)N(C)Cc1nnc2ccccn12,12.46,-3.46
Cc1nn(C)cc1Cn1cc(Cl)c(N)n1,9.161,3.799
CC(C)(O)CN1CCN(C(=O)COCC2CC2)CC1,-20.43,-3.635
CN1Cc2nnc(C3CCOCC3)n2C(Cc2c[nH]cn2)C1 (stereo not shown),6.227,15.33
CC(=O)N1N=C(c2cccs2)OC1C(=O)Nc1ccccc1 (stereo not shown),-0.8585,2.785
Cc1cc(NC(=O)NC2CCCc3c2cnn3CCO)n(C)n1 (stereo not shown),-5.487 and -9.048,-27.48
CN(C(=O)CN1CCCC1Cc1ccccc1)c1ccccc1 (stereo not shown),17.07,50.05 and 40.5
Cc1ccc2nc(CN3CCN(C4CCCCC4)C(=O)C3)cc(O)c2c1,-16.79,-29.49

The first 6 entries again:

structure	A	B
CCC(CNC(=O)c1ccco1)N1CCc2ccccc2C1 (stereo not shown)	-3.954	16.92 and 1.091
COc1ccccc1OCc1cc(C(=O)N2C[C@@H](C)O[C@@H](C)C2)n[nH]1	-9.475	12.77
CCc1nc(CN2CCCN(c3ncnc4sccc34)CC2)no1	-8.235	13.96 and -8.254
O=c1ccc(-c2cccs2)nn1CN1CCOC(c2ccccc2)C1 (stereo not shown)	-0.6048	-6.046
CC(=O)NCC(=O)N1CCN(CCN(C)C)c2ncccc2C1.O=C(O)C(F)(F)F.O=C(O)C(F)(F)F	7.454 and -5.358	-5.07
Cc1cccc(C(=O)NCc2ccnc(N(C)C)c2)n1	-1.477	-3.217

From ChEMBL document CHEMBL3988442, “University of Dundee, Small-Polar-MMV Screening Library” (2021).